Earlier results as cited in US6691045B1, “Method for determining discrete quantitative structure activity relationships” (Chemical Computing Group Inc., priority 1998, dated 2004).
For at least one compound, name, drawing or mass did not settle the structure.

Tested on: estrogen receptor
Conditions: relative binding affinity scale, estradiol = 100; binding at 0 to 4° C.; presumed ER-α; cited from earlier work

C[C@]12CC[C@@H]3c4ccc(O)cc4CC[C@H]3[C@@H]1CC[C@@H]2O [estradiol]
log RBA: 2.00
